Source: patent US20110257102A1 (CASE WESTERN RESERVE UNIVERSITY, published 2011)
These are yes or no findings as the source states them, for the method shown. Some binding calls cover weakened binding; strength is not graded here.

Columns and labels:
[1] = target: GST-tagged FLNa domains 15-16 (UniProt P21333); test: in vitro pull-down assays, immunoblots
[2] = target: GST-tagged FLNa domains 15-16 (UniProt P21333); test: in vitro pull-down with mAb 8H4 and protein G beads, anti-GST immunoblot

recombinant pro-PrP^23-253 (from UniProt P04156 23-253)
binding [1]: binds | binding [2]: binds
